Results are given in words; binding and its absence hold for the method and conditions named. In cells and extracts the contact can be indirect. Some results given as binding are weak or reduced against the parent protein; the word gives no strength. For some assays here: Sequences can lack the tags named with a protein. One block for each molecule: values may come before it.
Legend:
FRS2-mNeonGreen (human) = target: T1, FRS2-mNeonGreen (human) (UniProt Q8WU20); experiment: co-IP; mNeonGreen-Trap magnetic agarose on lysates of UW228 FRS2-mNG/mCherry-Nuc cells (UW228 WT as control), serum-starved, with or without 50 ng/mL bFGF for 5 min; lysis in 10 mM Tris, 150 mM NaCl, 0.5 mM EDTA, 0.25% NP-40, pH 7.5; 90 min at 4 C; immunoblot of the eluate
T1 sequence: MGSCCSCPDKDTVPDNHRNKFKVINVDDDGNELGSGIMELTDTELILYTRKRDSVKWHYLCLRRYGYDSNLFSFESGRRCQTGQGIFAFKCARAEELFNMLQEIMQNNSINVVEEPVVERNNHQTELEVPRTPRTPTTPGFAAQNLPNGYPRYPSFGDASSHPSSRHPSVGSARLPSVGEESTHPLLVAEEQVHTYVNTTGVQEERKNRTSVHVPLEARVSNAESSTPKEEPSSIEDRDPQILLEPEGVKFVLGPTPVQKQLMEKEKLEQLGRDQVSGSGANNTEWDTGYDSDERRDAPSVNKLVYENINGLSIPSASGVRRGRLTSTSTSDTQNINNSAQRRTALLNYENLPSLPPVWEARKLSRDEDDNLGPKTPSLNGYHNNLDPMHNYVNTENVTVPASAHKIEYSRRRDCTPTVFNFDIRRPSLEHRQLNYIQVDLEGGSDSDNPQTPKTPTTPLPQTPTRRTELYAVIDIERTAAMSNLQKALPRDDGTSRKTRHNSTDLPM

The chains behind the UniProt entries cited, without tags or fusion partners.
UniProt Q9Y6W5: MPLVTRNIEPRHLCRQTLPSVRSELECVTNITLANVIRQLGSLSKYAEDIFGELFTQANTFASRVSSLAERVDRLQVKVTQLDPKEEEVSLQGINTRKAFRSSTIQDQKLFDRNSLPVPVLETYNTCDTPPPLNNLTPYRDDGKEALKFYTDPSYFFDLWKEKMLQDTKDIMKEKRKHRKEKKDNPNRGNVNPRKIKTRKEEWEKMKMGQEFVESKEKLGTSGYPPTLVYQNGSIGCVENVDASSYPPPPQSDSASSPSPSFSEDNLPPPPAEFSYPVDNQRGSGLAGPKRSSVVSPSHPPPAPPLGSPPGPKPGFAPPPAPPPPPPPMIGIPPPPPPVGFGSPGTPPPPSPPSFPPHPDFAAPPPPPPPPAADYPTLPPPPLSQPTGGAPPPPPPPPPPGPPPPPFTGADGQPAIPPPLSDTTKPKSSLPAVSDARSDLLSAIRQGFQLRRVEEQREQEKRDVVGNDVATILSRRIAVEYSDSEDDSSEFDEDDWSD

[1] = target: T2, biotinylated FGFR peptide; experiment: pull-down; biotinylated FGFR peptide on streptavidin Dynabeads, incubated with cell lysates 90 min at 4 C and 90 min at RT; immunoblot of eluates; only the target purified
T2 sequence (peptide, biotin on the N-terminus): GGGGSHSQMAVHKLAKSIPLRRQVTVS

- binding (FRS2-mNeonGreen (human)): binds
Molecule: Actin-binding protein WASF2 (from UniProt Q9Y6W5 1-498)

- binding [1]: binds
B1: FRS2-APEX2-V5 (protein, UniProt Q8WU20 1-508)
chain: T1 sequence

From publication PMC13393275
